# Measurements taken from publication PMC7568852.
# Sequences of proteins named here, by UniProt entry; tags and fusion partners are left off.
# UniProt P25490: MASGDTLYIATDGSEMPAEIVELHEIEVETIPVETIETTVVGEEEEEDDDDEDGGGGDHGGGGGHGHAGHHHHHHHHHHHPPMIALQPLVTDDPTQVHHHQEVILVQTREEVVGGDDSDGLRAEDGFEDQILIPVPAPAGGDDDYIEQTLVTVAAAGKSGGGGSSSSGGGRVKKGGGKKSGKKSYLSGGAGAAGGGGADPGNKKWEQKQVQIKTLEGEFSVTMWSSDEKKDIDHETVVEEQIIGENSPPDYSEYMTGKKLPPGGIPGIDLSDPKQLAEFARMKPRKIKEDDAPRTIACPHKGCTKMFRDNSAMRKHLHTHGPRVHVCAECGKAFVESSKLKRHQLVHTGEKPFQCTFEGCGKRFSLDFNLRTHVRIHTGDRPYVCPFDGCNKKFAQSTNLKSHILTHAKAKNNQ
# UniProt O00571: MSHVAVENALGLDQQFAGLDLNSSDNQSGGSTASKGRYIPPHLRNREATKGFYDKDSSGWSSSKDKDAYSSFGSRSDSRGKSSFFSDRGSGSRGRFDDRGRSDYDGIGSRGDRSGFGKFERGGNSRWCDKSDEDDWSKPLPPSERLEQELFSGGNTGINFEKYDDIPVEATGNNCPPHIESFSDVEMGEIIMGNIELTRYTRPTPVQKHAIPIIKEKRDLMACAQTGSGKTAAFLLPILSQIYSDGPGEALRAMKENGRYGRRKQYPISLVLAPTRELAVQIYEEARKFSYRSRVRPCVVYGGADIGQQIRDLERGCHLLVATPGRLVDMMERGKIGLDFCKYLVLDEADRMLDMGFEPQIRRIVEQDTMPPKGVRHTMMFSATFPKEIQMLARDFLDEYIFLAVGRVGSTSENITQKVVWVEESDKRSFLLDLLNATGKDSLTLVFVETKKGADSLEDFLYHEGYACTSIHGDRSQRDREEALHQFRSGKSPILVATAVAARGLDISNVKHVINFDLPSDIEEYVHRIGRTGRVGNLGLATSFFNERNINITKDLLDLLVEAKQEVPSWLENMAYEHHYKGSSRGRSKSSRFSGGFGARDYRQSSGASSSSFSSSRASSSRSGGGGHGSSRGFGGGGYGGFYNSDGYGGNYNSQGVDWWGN
# UniProt P03372: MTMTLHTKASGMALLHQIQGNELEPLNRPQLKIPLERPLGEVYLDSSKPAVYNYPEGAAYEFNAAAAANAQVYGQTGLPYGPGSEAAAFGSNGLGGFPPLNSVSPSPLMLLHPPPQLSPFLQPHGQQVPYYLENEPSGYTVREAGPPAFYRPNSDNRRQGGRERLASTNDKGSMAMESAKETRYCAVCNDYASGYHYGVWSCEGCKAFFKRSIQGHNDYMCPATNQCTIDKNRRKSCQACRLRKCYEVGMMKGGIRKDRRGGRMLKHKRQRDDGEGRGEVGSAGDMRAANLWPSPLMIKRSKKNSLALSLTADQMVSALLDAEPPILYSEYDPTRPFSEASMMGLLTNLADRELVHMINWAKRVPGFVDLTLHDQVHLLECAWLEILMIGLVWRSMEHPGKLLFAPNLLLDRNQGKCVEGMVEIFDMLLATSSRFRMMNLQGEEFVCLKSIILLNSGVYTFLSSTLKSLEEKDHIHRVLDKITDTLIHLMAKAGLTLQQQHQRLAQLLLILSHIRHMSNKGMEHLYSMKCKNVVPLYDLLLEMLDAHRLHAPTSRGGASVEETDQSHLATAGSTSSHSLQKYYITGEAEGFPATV
# Results are given in words; binding and its absence hold for the method and conditions named. In cells and extracts the contact can be indirect. Some results given as binding are weak or reduced against the parent protein; the word gives no strength.
# What was measured:
# [1] = molecular target: Yin Yang 1 (human (endogenous in DLD-1)) (UniProt P25490); assay: co-IP; YY1 immunoprecipitation: whole lysates incubated with the beads-antibody complex, western blot; DLD-1 cells overexpressing TCONS_00012883 and controls
# [2] = molecular target: DEAD‐box helicase 3 (human (endogenous in DLD-1)) (UniProt O00571); assay: co-IP; DDX3 antibody immobilised on AminoLink Plus Coupling Resin, incubated with DLD-1 cell lysates overnight at 4°C, western blot; also in cells overexpressing TCONS_00012883 and controls
substance,measurement,setting,value
DEAD‐box helicase 3 (from UniProt O00571 1-662),binding,[1],binds
Yin Yang 1 (from UniProt P25490 1-414),binding,[2],binds
estrogen receptor 1 (from UniProt P03372 1-595),binding,[2],no binding
